These are yes or no findings as the source states them, for the method shown. In cells and extracts the contact can be indirect. Some entries that bind do so weakly or less than the wild type.
B1: TPX2, endogenous in HeLa cells (natural protein, human (endogenous in HeLa), UniProt Q9ULW0 1-747, looked up)
chain: MSQVKSSYSYDAPSDFINFSSLDDEGDTQNIDSWFEEKANLENKLLGKNGTGGLFQGKTPLRKANLQQAIVTPLKPVDNTYYKEAEKENLVEQSIPSNACSSLEVEAAISRKTPAQPQRRSLRLSAQKDLEQKEKHHVKMKAKRCATPVIIDEILPSKKMKVSNNKKKPEEEGSAHQDTAEKNASSPEKAKGRHTVPCMPPAKQKFLKSTEEQELEKSMKMQQEVVEMRKKNEEFKKLALAGIGQPVKKSVSQVTKSVDFHFRTDERIKQHPKNQEEYKEVNFTSELRKHPSSPARVTKGCTIVKPFNLSQGKKRTFDETVSTYVPLAQQVEDFHKRTPNRYHLRSKKDDINLLPSKSSVTKICRDPQTPVLQTKHRARAVTCKSTAELEAEELEKLQQYKFKARELDPRILEGGPILPKKPPVKPPTEPIGFDLEIEKRIQERESKKKTEDEHFEFHSRPCPTKILEDVVGVPEKKVLPITVPKSPAFALKNRIRMPTKEDEEEDEPVVIKAQPVPHYGVPFKPQIPEARTVEICPFSFDSRDKERQLQKEKKIKELQKGEVPKFKALPLPHFDTINLPEKKVKNVTQIEPFCLETDRRGALKAQTWKHQLEEELRQQKEAACFKARPNTVISQEPFVPKKEKKSVAEGLSGSLVQEPFQLATEKRAKERQELEKRMAEVEAQKAQQLEEARLQEEEQKKEELARLRRELVHKANPIRKYQGLEIKSSDQPLTVPVSPKFSTRFHC
notes: TPX2, endogenous protein of HeLa cells detected with anti-TPX2; source: endogenous, HeLa whole-cell lysate

Protein sequences, listed by entry. Tags and fused reporters are not part of them.
UniProt P35611: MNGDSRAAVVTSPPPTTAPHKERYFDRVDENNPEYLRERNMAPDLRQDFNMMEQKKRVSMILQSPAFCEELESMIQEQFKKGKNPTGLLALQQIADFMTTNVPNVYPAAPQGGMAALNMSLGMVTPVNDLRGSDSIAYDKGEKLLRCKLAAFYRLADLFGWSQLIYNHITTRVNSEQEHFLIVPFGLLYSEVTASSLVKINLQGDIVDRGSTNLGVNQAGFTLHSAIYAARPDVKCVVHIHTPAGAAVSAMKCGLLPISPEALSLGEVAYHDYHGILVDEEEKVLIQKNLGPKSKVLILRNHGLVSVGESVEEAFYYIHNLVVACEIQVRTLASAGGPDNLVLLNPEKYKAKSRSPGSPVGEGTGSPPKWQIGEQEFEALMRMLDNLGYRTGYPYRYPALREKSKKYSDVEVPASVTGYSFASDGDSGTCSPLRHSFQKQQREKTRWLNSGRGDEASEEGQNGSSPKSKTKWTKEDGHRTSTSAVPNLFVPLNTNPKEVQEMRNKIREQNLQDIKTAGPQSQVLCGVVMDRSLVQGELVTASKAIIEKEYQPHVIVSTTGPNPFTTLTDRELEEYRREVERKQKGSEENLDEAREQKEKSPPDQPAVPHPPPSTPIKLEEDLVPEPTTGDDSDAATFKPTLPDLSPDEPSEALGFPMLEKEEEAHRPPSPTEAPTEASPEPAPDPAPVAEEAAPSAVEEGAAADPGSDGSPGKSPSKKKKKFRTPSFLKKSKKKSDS

Columns and labels:
[1] = target: FLAG-ADD1 WT (adducin-1), transiently expressed in HEK293 cells (UniProt P35611); experiment: co-IP; FLAG-ADD1 or FLAG-AurA transiently co-expressed with HA-TPX2 or its mutants in HEK293 cells; immunoprecipitation with anti-FLAG, blot with anti-FLAG or anti-HA
[2] = target: FLAG-ADD1 WT (adducin-1), expressed in HeLa cells (UniProt P35611); experiment: co-IP; HeLa cells expressing FLAG-ADD1 WT or S726A, synchronized at the M phase (nocodazole); lysates in TBS buffer (1% Triton X-100, 50 mM Tris-HCl pH 7.4, 150 mM NaCl) incubated with anti-FLAG M2 affinity resins for 16 h, eluted with FLAG peptide, blotted with anti-FLAG and anti-TPX2
[3] = target: FLAG-ADD1 WT (adducin-1), expressed in HeLa cells (UniProt P35611); experiment: co-IP; as a1, but HeLa cells left asynchronized (interphase)

Molecule	binding [1]	binding [2]	binding [3]
HA-TPX2 Δ236–370 deletion mutant, transiently expressed in HEK293 cells (from UniProt Q9ULW0 1-747)	no binding	–	–
HA-tagged TPX2 WT, transiently expressed in HEK293 cells (from UniProt Q9ULW0 1-747)	binds	–	–
B1	–	binds	no binding (condition: asynchronized (interphase) cells)

Reference: publication PMC6073210, “Adducin‐1 is essential for spindle pole integrity through its interaction with TPX2” (EMBO Reports, 2018)
